Reference: patent EP4660202A1
No constants are given. Whether binding was seen depends on the method and setting. Some binding calls cover weakened binding; strength is not graded here.

T1: Lrig-1 protein present on the surface of L cells (human-derived Lrig-1 protein) (human) (UniProt Q96JA1)
T1 sequence: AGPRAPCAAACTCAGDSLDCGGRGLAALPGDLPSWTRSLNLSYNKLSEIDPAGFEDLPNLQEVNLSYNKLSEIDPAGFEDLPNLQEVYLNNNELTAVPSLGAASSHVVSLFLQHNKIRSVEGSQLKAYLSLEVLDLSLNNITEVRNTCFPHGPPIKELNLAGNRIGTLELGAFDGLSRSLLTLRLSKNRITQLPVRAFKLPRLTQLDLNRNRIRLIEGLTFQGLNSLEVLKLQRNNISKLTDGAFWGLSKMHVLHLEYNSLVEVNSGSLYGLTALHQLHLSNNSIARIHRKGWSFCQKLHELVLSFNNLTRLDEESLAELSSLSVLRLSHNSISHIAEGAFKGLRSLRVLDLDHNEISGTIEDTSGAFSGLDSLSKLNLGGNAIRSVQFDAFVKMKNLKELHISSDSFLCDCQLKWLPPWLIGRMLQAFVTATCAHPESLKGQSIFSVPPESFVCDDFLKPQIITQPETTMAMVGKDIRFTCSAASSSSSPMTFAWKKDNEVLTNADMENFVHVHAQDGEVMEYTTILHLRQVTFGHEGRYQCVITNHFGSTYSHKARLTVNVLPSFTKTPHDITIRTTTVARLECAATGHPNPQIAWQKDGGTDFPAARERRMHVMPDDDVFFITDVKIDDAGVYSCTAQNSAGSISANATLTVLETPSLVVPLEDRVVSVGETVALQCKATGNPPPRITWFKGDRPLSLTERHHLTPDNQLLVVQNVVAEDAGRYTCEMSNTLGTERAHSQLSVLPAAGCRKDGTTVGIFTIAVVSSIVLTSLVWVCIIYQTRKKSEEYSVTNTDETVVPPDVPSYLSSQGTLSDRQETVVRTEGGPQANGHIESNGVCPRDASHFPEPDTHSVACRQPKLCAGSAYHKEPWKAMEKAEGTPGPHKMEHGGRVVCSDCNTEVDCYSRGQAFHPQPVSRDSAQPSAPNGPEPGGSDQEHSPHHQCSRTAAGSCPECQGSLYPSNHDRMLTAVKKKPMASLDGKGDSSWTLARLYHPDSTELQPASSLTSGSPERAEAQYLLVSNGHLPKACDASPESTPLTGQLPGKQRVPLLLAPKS


biological target: T1, Lrig-1 protein present on the surface of L cells (human-derived Lrig-1 protein) (human); experiment: FACS on L cells stably expressing Lrig-1, eFlour 670-conjugated secondary antibody

binding | Binder
binds | GTC210-03 clone (antibody, mouse IgG2a, V domains shown) VH: EVQLLESGGGLVQPGGSLRLSCAASGFTFSSYDMSWVRQAPGKGLEWVSGISPDGSNIYYADSVKGRFTISRDNSKNTLYLQMNSLRAEDTAVYYCAKVGLRCRYEACSYAYGMDVWGQGTLVTVSS VL: QSVLTQPPSASGTPGQRVTISCSGSSSNIGSNYVSWYQQLPGTAPKLLIYSDSHRPSGVPDRFSGSKSGTSASLAISGLRSEDEADYYCATWDSSLNGYVFGGGTKLTVLR
binds | GTC210-04 clone (antibody, mouse IgG2a, V domains shown) VH: EVQLLESGGGLVQPGGSLRLSCAASGFTFSNYDMSWVRQAPGKGLEWVSSISPSSGSIYYADSVKGRFTISRDNSKNTLYLQMNSLRAEDTAVYYCAKDLDAFWRPSFDYWGQGTLVTVSS VL: QSVLTQPPSASGTPGQRVTISCTGSSSNIGNNNVNWYQQLPGTAPKLLIYSDSHRPSGVPDRFSGSKSGTSASLAISGLRSEDEADYYCGSWDDSLSAYVFGGGTKLTVLR

The remaining lines, values behind:

Binder | binding
GTC210-01 clone (antibody, mouse IgG2a, V domains shown) VH: EVQLLESGGGLVQPGGSLRLSCAASGFTFSGYDMSWVRQAPGKGLEWVSLIYPDSGNKYYADSVKGRFTISRDNSKNTLYLQMNSLRAEDTAVYYCARDAGLSWAGAFDYWGQGTLVTVSS VL: QSVLTQPPSASGTPGQRVTISCSGSSSNIGSNYVTWYQQLPGTAPKLLIYSDSHRPSGVPDRFSGSKSGTSASLAISGLQSEDEADYYCGSWDYSLSAYVFGGGTKLTVLR | binds
GTC210-02 clone (antibody, mouse IgG2a, V domains shown) VH: EVQLLESGGGLVQPGGSLRLSCAASGFTFSNYYMSWVRQAPGKGLEWVSGISPGDSSTYYADSVKGRFTISRDNSKNTLYLQMNSLRAEDTAVYYCAKGLYSNPNEPFDYWGQGTLVTVSS VL: QSVLTQPPSASGTPGQRVTISCTGSSSNIGSNYVSWYQQLPGTAPKLLIYDDSQRPSGVPDRFSGSKSGTSASLAISGLRSEDEADYYCGTWDYSLNGYVFGGGTKLTVLR | binds
GTC110-02 clone (antibody, mouse IgG2a, V domains shown) VH: EVQLLESGGGLVQPGGSLRLSCAASGFTFSDYYMSWVRQAPGKGLEWVSGISHDSGSKYYADSVKGRFTISRDNSKNTLYLQMNSLRAEDTAVYYCARHWTTFDYWGQGTLVTVSS VL: QSVLTQPPSASGTPGQRVTISCSGSSSNIGSNNVTWYQQLPGTAPKLLIYANSNRPSGVPDRFSGSKSGTSASLAISGLRSEDEADYYCGAWDYSLSAYVFGGGTKLTVLR | binds
GTC110-03 clone (antibody, mouse IgG2a, V domains shown) VH: EVQLLESGGGLVQPGGSLRLSCAASGFTFSNYAMSWVRQAPGKGLEWVSAIYPGGGSIYYADSVKGRFTISRDNSKNTLYLQMNSLRAEDTAVYYCARDILPCPWGRCYYDYAMDVWGQGTLVTVSS VL: QSVLTQPPSASGTPGQRVTISCSDSSSNIGSNTVSWYQQLPGTAPKLLIYADNNRPSGVPDRFSGSKSGTSASLAISGLRSEDEADYYCGTWDYSLSGYVFGGGTKLTVLR | binds
